# Measured values published in doi:10.1101/2025.02.14.638310 (bioRxiv, 2025).
# Sequences of proteins named here, by UniProt entry; tags and fusion partners are left off. A change or cut given only in a name is not applied to a line headed by its entry. Residues count along the entry.
# UniProt Q8I6T1, residues 28-426: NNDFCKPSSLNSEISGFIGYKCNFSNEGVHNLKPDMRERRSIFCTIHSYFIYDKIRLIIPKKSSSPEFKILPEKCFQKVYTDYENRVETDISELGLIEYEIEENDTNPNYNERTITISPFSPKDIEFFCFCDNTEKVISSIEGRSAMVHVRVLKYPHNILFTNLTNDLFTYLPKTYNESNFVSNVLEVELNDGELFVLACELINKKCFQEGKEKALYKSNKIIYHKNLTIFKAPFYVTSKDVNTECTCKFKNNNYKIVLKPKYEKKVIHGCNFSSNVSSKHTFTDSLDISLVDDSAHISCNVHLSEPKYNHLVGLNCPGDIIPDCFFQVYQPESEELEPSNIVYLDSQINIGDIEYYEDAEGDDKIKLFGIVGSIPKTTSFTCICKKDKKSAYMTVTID
# UniProt P68874: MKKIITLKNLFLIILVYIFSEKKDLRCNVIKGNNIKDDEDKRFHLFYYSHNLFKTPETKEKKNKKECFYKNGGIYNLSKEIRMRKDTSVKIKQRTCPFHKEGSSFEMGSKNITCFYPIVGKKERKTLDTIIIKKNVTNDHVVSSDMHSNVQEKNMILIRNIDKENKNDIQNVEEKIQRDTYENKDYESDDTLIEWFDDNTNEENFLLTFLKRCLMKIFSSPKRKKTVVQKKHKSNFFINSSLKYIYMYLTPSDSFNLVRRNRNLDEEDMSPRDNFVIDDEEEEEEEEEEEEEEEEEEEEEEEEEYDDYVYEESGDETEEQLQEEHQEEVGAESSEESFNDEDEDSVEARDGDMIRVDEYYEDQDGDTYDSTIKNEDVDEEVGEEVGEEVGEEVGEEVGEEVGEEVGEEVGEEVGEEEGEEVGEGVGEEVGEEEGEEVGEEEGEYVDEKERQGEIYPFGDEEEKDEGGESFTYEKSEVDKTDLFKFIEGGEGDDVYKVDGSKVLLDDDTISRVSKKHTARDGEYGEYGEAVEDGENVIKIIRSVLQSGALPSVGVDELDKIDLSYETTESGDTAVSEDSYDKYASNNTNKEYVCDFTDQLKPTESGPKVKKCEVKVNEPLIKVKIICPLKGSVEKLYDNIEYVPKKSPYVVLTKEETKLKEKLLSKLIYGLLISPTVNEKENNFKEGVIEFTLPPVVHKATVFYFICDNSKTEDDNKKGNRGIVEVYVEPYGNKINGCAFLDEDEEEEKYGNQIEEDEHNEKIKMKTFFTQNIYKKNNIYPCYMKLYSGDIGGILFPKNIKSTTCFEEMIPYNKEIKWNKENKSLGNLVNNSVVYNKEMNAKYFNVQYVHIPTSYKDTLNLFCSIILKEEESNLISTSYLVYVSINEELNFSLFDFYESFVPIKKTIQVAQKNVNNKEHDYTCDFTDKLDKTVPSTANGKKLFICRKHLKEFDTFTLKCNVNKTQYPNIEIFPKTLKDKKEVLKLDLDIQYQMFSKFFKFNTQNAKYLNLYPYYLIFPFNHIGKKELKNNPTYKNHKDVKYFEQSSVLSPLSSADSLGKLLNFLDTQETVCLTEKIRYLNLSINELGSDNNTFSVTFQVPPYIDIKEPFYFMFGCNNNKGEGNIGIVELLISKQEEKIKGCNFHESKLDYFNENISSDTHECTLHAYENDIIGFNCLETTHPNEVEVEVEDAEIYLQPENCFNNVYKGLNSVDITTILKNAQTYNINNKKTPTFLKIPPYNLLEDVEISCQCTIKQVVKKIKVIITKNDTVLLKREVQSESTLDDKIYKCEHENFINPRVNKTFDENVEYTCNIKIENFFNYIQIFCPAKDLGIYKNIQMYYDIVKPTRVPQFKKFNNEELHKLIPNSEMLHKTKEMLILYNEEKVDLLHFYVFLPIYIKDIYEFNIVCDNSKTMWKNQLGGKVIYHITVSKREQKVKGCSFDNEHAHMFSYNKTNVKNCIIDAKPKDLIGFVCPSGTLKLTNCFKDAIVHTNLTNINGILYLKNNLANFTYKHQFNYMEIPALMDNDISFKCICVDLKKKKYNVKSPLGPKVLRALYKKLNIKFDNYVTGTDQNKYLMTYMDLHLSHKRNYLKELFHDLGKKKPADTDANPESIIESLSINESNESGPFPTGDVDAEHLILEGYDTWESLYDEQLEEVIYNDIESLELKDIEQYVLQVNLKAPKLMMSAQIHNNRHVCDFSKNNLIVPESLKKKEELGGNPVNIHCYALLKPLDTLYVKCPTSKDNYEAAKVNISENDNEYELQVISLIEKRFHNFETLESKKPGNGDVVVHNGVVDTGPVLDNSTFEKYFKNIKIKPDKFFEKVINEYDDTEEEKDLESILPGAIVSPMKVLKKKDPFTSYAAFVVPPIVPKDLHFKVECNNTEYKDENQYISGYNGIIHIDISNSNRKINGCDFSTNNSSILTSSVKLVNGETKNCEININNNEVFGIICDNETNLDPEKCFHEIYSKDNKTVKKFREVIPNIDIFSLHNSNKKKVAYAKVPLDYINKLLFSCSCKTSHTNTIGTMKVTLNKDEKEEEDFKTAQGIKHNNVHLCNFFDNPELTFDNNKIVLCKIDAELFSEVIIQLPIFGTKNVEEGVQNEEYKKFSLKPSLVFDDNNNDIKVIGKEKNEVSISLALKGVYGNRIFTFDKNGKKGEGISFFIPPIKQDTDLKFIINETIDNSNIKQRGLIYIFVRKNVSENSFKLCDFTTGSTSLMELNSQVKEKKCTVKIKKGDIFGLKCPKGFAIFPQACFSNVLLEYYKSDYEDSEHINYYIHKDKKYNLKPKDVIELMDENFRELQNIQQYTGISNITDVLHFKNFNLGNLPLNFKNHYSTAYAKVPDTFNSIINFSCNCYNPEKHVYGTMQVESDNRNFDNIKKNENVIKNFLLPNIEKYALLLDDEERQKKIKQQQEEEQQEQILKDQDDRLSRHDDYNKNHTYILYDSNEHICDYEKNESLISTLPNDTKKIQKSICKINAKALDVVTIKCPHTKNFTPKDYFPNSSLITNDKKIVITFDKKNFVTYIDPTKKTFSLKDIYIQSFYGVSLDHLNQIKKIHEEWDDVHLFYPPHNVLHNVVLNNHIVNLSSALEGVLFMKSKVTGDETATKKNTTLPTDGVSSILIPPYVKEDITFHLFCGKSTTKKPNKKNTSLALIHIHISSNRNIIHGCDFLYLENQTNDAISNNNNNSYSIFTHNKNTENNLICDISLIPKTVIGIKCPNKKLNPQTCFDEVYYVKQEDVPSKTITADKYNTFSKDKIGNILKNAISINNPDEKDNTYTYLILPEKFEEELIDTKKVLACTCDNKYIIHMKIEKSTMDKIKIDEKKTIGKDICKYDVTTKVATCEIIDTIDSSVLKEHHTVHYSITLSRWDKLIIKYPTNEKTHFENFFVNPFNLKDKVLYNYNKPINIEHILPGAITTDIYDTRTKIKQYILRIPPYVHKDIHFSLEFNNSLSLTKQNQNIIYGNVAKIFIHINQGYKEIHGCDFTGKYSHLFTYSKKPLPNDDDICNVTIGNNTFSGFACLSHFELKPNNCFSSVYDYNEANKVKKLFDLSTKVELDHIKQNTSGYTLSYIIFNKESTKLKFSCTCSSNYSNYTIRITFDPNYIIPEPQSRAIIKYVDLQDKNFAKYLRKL
# No constants are given. Whether binding was seen depends on the method and setting. A result given as binding can be weak or reduced; the word gives no strength.
# Target: Pfs48/45 (endogenous) (Plasmodium falciparum (endogenous in NF54 gametocytes and gametes)) (UniProt Q8I6T1)
# Experiment: flow cytometry on cells; only the binder purified
substance,measurement,value
"Pfs230D13–14-Cterm (recombinant double domain, residue 2831–3105) (from UniProt P68874) (domain or fragment)",binding,binds
